# Results taken from article PMC12033915.
# Amino acid sequences for entries named in this document (tags omitted).
# UniProt Q16630: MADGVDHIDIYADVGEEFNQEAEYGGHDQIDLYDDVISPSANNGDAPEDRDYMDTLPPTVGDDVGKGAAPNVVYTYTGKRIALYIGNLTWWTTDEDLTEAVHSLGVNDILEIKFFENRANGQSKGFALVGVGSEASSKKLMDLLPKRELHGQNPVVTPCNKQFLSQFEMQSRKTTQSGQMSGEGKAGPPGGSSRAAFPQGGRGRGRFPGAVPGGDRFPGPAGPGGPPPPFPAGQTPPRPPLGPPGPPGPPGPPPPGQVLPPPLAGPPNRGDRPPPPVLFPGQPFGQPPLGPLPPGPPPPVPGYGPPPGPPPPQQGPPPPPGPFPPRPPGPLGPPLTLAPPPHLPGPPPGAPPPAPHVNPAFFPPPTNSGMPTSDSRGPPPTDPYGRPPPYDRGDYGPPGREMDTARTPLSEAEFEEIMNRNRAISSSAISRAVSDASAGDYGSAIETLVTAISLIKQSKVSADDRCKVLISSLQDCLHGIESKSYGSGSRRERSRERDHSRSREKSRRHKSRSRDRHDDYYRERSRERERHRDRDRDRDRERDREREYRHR
# UniProt P11940: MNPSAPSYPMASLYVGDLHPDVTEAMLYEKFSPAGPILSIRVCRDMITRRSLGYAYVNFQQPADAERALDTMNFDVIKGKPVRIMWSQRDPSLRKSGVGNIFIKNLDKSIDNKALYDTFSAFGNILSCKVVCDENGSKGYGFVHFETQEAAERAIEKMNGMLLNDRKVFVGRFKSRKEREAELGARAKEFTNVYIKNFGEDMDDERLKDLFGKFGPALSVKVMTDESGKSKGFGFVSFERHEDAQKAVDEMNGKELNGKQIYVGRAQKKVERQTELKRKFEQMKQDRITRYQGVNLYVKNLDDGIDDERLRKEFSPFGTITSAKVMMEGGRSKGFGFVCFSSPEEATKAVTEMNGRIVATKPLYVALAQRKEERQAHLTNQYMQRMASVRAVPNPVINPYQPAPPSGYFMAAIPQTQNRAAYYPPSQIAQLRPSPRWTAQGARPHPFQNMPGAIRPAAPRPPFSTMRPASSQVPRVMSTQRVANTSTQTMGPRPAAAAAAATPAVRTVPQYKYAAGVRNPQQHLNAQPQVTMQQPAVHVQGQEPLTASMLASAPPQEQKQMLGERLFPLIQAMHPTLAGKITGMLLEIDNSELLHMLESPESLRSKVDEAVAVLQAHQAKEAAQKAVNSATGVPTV
# Results are given in words; binding and its absence hold for the method and conditions named. Binding seen in cells or lysates may run through a third protein. Here binding means that the protein was enriched with, or labelled near, the bait; the list need not be complete.
# T1: SLC27A5 (bait of the IP-MS) (UniProt Q9Y2P5)
# T1 sequence: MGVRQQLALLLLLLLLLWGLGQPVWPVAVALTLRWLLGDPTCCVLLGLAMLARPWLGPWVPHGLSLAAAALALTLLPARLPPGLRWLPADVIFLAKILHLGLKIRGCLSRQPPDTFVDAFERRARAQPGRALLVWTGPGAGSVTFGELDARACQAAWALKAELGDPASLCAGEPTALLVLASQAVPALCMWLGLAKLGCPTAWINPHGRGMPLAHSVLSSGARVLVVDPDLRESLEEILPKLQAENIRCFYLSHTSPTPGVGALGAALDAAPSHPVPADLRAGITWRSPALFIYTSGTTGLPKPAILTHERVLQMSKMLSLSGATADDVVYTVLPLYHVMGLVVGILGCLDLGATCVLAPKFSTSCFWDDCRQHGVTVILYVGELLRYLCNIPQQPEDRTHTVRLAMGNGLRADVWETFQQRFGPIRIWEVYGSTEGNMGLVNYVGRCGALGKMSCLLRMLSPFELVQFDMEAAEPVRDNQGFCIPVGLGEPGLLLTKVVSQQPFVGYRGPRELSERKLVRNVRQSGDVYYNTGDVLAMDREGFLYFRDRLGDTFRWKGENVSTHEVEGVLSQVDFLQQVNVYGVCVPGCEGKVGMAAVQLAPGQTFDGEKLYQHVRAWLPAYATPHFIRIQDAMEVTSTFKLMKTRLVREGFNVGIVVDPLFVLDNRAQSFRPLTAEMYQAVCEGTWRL
# Target: T1, SLC27A5 (bait of the IP-MS)
# Assay: affinity purification with mass spectrometry; IP-MS of SLC27A5; cells, antibody and construct not told
row,Molecule,binding
1,CPSF6 (from UniProt Q16630 1-551),binds
2,PABPC1 (hit of the IP-MS of SLC27A5) (from UniProt P11940 1-636),binds
3,"EXOSC10 (protein, UniProt Q01780 1-885) MAPPSTREPRVLSATSATKSDGEMVLPGFPDADSFVKFALGSVVAVTKASGGLPQFGDEYDFYRSFPGFQAFCETQGDRLLQCMSRVMQYHGCRSNIKDRSKVTELEDKFDLLVDANDVILERVGILLDEASGVNKNQQPVLPAGLQVPKTVVSSWNRKAAEYGKKAKSETFRLLHAKNIIRPQLKFREKIDNSNTPFLPKIFIKPNAQKPLPQALSKERRERPQDRPEDLDVPPALADFIHQQRTQQVEQDMFAHPYQYELNHFTPADAVLQKPQPQLYRPIEETPCHFISSLDELVELNEKLLNCQEFAVDLEHHSYRSFLGLTCLMQISTRTEDFIIDTLELRSDMYILNESLTDPAIVKVFHGADSDIEWLQKDFGLYVVNMFDTHQAARLLNLGRHSLDHLLKLYCNVDSNKQYQLADWRIRPLPEEMLSYARDDTHYLLYIYDKMRLEMWERGNGQPVQLQVVWQRSRDICLKKFIKPIFTDESYLELYRKQKKHLNTQQLTAFQLLFAWRDKTARREDESYGYVLPNHMMLKIAEELPKEPQGIIACCNPVPPLVRQQINEMHLLIQQAREMPLLKSEVAAGVKKSGPLPSAERLENVLFGPHDCSHAPPDGYPIIPTSGSVPVQKQASLFPDEKEDNLLGTTCLIATAVITLFNEPSAEDSKKGPLTVAQKKAQNIMESFENPFRMFLPSLGHRAPVSQAAKFDPSTKIYEISNRWKLAQVQVQKDSKEAVKKKAAEQTAAREQAKEACKAAAEQAISVRQQVVLENAAKKRERATSDPRTTEQKQEKKRLKISKKPKDPEPPEKEFTPYDYSQSDFKAFAGNSKSKVSSQFDPNKQTPSGKKCIAAKKIKQSVGNKSMSFPTGKSDRGFRYNWPQR",binds
